# Source: PubChem BioAssay AID2685 (National Center for Advancing Translational Sciences (NCATS), 2010)
# The list shows a part of the results. The main result of the screen is listed elsewhere. These columns were measured beside it and carry no call. The list favours compounds with an active or inconclusive main result. Words in brackets tell the shape of the fitted curve; partial curves, single points and poor fits give uncertain potencies.
# Test: qHTS Assay for Lipid Storage Modulators in Drosophila S3 Cells;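 on cell number change: cells counted by Cell Tracker Red CMTPX staining in the red channel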
# Conditions: BODIPY lipid droplet fluorescence, 18-24 h; for cell number change: measured here: cell count max response, cells fed with added oleic acid
# Procedure, shortened: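 Drosophila S3 cells loaded with oleic acid (400 uM, as added) and compounds at several concentrations; lipid droplets imaged by 488-nm laser-scanning cytometry, 500–530 nm intensity and object ratio to cell channel. Percent activity normalized to 20 uM Triacsin C.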
# [1] = measured here: cell number channel AC50, cells fed with added oleic acid
# [2] = measured here: lipid fluorescence (Fed channel) AC50, cells fed with added oleic acid
Structure (SMILES),cell number change,AC50 [1],AC50 [2]
CCOC(=O)COc1ccc(/C=C/[N+](=O)[O-])c(OCC(=O)OCC)c1,-41.8%,"20.6 µM [falling, single point]","18.4 µM [falling, partial curve]"
Cc1ccc(-c2csc3nnc(SCC(=O)Nc4nsc(-c5ccccc5)n4)n23)cc1,120%,"2.59 µM [rising, partial curve]","0.259 µM [rising, full curve, poor fit]"
CN1CCC(OC(=O)C23CCC(C)(C(=O)O2)C3(C)C)CC1 (stereo not given),1.19%,–,"29.1 µM [falling, single point]"
CN1CCC2(CC1)N=C(c1ccc(F)cc1)C(=S)N2C(=O)c1ccc(C(C)(C)C)cc1,-65.1%,"13 µM [falling, partial curve]","11.6 µM [falling, partial curve]"
CC1(C)CC(=O)C(CC(=O)Nc2ccc(S(N)(=O)=O)cc2)=C(O)C1,-26.9%,–,–
CNC(=O)/C(C#N)=C/c1c(N(Cc2ccccc2)Cc2ccccc2)nc2ccccn2c1=O,-11.5%,–,"29.1 µM [falling, single point]"
COCCn1c(SCc2cccc(F)c2)nc2cc(C(=O)OC)ccc2c1=O,8.15%,–,"6.51 µM [falling, single point]"
CCN(CC)S(=O)(=O)c1ccc(O)c(NS(=O)(=O)c2ccccc2F)c1,10.9%,–,–
COc1cc(NC(=O)C2CC(c3c(F)cccc3Cl)=NO2)cc(OC)c1OC (stereo not given),–,–,"14.6 µM [falling, partial curve]"
COc1ccccc1NS(=O)(=O)c1cccc(C(=O)OCc2nc3ccccc3s2)c1,5.91%,–,"0.92 µM [rising, single point]"
CN(C)C(=O)c1cn(-c2ccccc2)nc1-c1cc2ccccc2o1,32.6%,"29.1 µM [rising, single point]","29.1 µM [rising, single point]"
COCCn1c(SCC(=O)Nc2ccc(S(N)(=O)=O)cc2)nc2ccccc21,40.7%,–,"18.4 µM [rising, single point]"
COc1c(O)cc2c(c1O)C1OC(CO)C(O)C(O)C1OC2=O (stereo not given),-35%,"23.1 µM [falling, single point]","0.731 µM [falling, single point]"
O=C(Cc1ccc(Cl)cc1)Oc1cccc2cccnc12,28.4%,–,"1.03 µM [rising, full curve]"
O=C(c1cc(-c2cccc(Cl)c2)nc2ccccc12)N1CCN(c2ccccn2)CC1,35.1%,"20 µM [rising, single point]","7.94 µM [rising, partial curve]"
CCOc1ccc(NC(=S)NC(C)c2cccs2)cc1 (stereo not given),–,"0.092 µM [falling, partial curve, poor fit]",–
CCC(C)(C)NC(=O)CN(Cc1ccc2c(c1)OCO2)C(=O)CCC(=O)Nc1cc(C)ccn1,-7.69%,–,–
CCOC(=O)N1CCN(c2ccc(Cl)cc2)CC1,13.8%,–,"7.31 µM [rising, partial curve, poor fit]"
Cn1c(=O)[nH]c(=O)c2c1nc(Sc1nc3ccccc3s1)n2Cc1ccccc1,-10.1%,–,"1.3 µM [rising, full curve]"
Cc1ccc(CNS(=O)(=O)c2cc(F)ccc2CN2C(=O)c3cccnc3C2=O)o1,-1.53%,–,"0.58 µM [falling, single point]"

Structure (SMILES),cell number change,AC50 [1],AC50 [2]
COc1ccc(NC(=O)CN(C)C(=O)c2cc(C)on2)cc1,-10.2%,"0.13 µM [falling, full curve, poor fit]","6.51 µM [falling, single point]"
COc1ccc(NC(=O)C2CCCN(S(=O)(=O)c3c(C)n[nH]c3C)C2)c(OC)c1 (stereo not given),-21.8%,–,"0.291 µM [falling, full curve, poor fit]"
CC(C)C(=O)OC1CCS(=O)(=O)c2sccc21 (stereo not given),-6.69%,–,"3.26 µM [rising, single point]"
Cc1cc(NC(=O)CCN2C(=O)C3C4CCC(C4)C3C2=O)c(C)cc1Br (stereo not given),-14.3%,–,"18.4 µM [falling, single point]"
Cc1ccccc1-n1c(SCC(=O)c2cc(C)n(C)c2C)nnc1-c1cccnc1,90.6%,"0.0731 µM [rising, full curve, poor fit]","1.16 µM [rising, full curve]"
Cc1cccc(-n2c(C)c(C)c3c(N)ncnc32)c1,-2.25%,"0.82 µM [rising, single point]","29.1 µM [falling, single point]"
Cc1cccc(/C=C/c2nc3ccccc3c(=O)n2Cc2ccccc2)c1,-27.7%,–,"29.1 µM [falling, single point]"
COc1cc(NC(=O)c2nn(C)c3c2CS(=O)(=O)c2ccccc2-3)cc(OC)c1,-17%,–,"18.4 µM [falling, single point]"
O=C(O)CCCCCNC(=O)c1ccc(Br)cc1,-77.9%,"13 µM [falling, partial curve]","1.64 µM [falling, partial curve]"
CCc1ccc(S(=O)(=O)NCc2cccnc2)cc1,-18.5%,–,"0.82 µM [rising, single point]"
O=S(=O)(Nc1cccc(-c2ccc3nncn3n2)c1)c1ccc(Cl)s1,33.5%,"29.1 µM [rising, single point]",–
COc1cc(OC)cc(-c2c(C#Cc3ccsc3)c3cc(-c4ccc(C(N)=O)cc4)ccc3n2C)c1,-18.5%,–,–
Cc1ccc(-c2nc(SC(C)C(=O)c3c(N)n(C)c(=O)n(C)c3=O)n[nH]2)cc1 (stereo not given),–,"6.51 µM [rising, single point]",–
CCOc1ccc(NC(=O)COC(=O)c2ncc(Cl)c(Cl)c2Cl)cc1,-17.2%,–,–
O=C(CCc1nc(-c2ccccc2F)no1)NCc1ccco1,12.4%,"0.206 µM [falling, full curve, poor fit]","0.231 µM [falling, full curve]"
Cc1ccc(C(=O)Nc2ccc3ncccc3c2)cc1,15.6%,"3.66 µM [rising, partial curve]",–
COc1ccc(NC(=O)COC(=O)C2CC(=O)N(Cc3ccc(C)cc3)C2)cc1 (stereo not given),–,–,"3.26 µM [falling, partial curve]"
CC1CCCCC12NC(=O)N(CC(=O)OCc1ccccc1Cl)C2=O (stereo not given),–,"6.51 µM [falling, single point]","29.1 µM [rising, single point]"
CCc1c(C)nc2ncnn2c1Nc1ccccc1C,-5.49%,–,–
CCCc1sc(N/N=C/c2ccccn2)nc1-c1ccc(F)cc1,-76.6%,"25.9 µM [falling, partial curve]","25.9 µM [falling, partial curve]"

# Quoted from the listing:
# In AC50 [2], `COc1cc(NC(=O)c2nn(C)c3c2CS(=O)(=O)c2ccccc2-3)cc(OC)c1` has 18.4 µM [falling, single point]
# In cell number change, `O=C(CCc1nc(-c2ccccc2F)no1)NCc1ccco1` has 12.4%
# In cell number change, `COc1ccc(NC(=O)C2CCCN(S(=O)(=O)c3c(C)n[nH]c3C)C2)c(OC)c1` (stereo not given) has -21.8%
# In cell number change, `Cc1cc(NC(=O)CCN2C(=O)C3C4CCC(C4)C3C2=O)c(C)cc1Br` (stereo not given) has -14.3%
# In AC50 [2], `CCc1ccc(S(=O)(=O)NCc2cccnc2)cc1` has 0.82 µM [rising, single point]

# Further entries.

Structure (SMILES),cell number change,AC50 [1],AC50 [2]
Cn1ncc(Br)c1C(=O)NC1CCCCC1,–,–,"18.4 µM [rising, partial curve]"
Cc1cc(C)nc(SCc2ccc(C(=O)N/N=C/c3ccccc3C(=O)O)cc2)n1,–,–,"6.51 µM [rising, single point]"
COc1nc(Nc2nc3ccccc3c(=O)[nH]2)nc2ccc(C)cc12,-36.5%,"1.3 µM [falling, full curve]","4.61 µM [falling, full curve, poor fit]"
O=[N+]([O-])c1ccc(Cl)c(/C=N/N2CCN(Cc3ccc(Cl)cc3)CC2)c1,–,–,"1.64 µM [rising, partial curve]"
N=c1c(S(=O)(=O)c2ccccc2)cc2c(=O)n3ccccc3nc2n1CCCN1CCOCC1,31.6%,"2.06 µM [rising, full curve, poor fit]",–
O=C1CC(C(=O)Nc2ccc(Cl)cc2[N+](=O)[O-])C2(CCCCC2)O1 (stereo not given),4.5%,–,–
COc1ccccc1-n1cnnc1SCC(=O)Nc1cccnc1Cl,43%,"5.8 µM [rising, full curve]","5.17 µM [rising, partial curve]"
CCOc1cc(N2CCOCC2)c(OCC)cc1NC(=O)COC(=O)COc1cc(C)cc(C)c1,-44%,"18.4 µM [falling, single point]","20.6 µM [falling, single point]"
CCc1nnc(NCC(=O)N2CCc3ccccc32)s1,–,"0.13 µM [falling, full curve, poor fit]",–
N#CCCN(NC1=NS(=O)(=O)c2ccccc21)C(=O)c1ccccc1Br,19.6%,–,–
O=C([C@@H]1CCCN1C(=O)c1cccs1)N1CCN(S(=O)(=O)c2cccc(F)c2)CC1,2.19%,–,"0.00461 µM [falling, full curve, poor fit]"
CCOC(=O)c1cnn(C(=O)c2ccccc2)c1N,6.49%,–,"18.4 µM [rising, single point]"
Cc1[nH]c2ccccc2c1/C=N/NC(=O)c1cccc(S(=O)(=O)Nc2ccccc2Cl)c1,2.32%,–,"0.92 µM [rising, full curve, poor fit]"
O=C1CC(N2CCC(O)CC2)C(=O)N1c1ccc(Br)cc1 (stereo not given),34.8%,"6.51 µM [rising, full curve, poor fit]",–
Cc1onc(-c2ccccc2Cl)c1C(=O)NC(=S)Nc1ccccc1F,22.8%,–,"2.59 µM [rising, full curve]"
O=C(NCCN1CCN(c2ccccc2)CC1)Nc1ccc(Cl)cc1,-4.17%,–,–
CCn1c(CC(=O)Nc2ccccc2OC)nnc1SCC(=O)Nc1ccccc1F,5.42%,–,"29.1 µM [rising, single point]"
C=CCc1c(C)nc(-c2ccccc2)nc1Nc1ccccc1O,-61.2%,"29.1 µM [falling, partial curve, poor fit]","4.61 µM [falling, partial curve]"
